Library screen at single concentrations

Chains of the proteins cited; added tags and fusions are not shown. Residues count along the entry.
UniProt P9WFT3, whole entry: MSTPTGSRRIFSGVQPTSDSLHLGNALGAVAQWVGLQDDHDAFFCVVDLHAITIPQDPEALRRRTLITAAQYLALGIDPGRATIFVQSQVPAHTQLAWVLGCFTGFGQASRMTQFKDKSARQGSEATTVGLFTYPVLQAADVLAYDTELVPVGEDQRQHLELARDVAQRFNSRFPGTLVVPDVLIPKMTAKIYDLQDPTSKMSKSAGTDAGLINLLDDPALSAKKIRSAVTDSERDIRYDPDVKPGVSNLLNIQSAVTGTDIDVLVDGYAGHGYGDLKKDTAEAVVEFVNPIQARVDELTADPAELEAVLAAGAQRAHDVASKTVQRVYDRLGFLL
UniProt I6X8D2, whole entry: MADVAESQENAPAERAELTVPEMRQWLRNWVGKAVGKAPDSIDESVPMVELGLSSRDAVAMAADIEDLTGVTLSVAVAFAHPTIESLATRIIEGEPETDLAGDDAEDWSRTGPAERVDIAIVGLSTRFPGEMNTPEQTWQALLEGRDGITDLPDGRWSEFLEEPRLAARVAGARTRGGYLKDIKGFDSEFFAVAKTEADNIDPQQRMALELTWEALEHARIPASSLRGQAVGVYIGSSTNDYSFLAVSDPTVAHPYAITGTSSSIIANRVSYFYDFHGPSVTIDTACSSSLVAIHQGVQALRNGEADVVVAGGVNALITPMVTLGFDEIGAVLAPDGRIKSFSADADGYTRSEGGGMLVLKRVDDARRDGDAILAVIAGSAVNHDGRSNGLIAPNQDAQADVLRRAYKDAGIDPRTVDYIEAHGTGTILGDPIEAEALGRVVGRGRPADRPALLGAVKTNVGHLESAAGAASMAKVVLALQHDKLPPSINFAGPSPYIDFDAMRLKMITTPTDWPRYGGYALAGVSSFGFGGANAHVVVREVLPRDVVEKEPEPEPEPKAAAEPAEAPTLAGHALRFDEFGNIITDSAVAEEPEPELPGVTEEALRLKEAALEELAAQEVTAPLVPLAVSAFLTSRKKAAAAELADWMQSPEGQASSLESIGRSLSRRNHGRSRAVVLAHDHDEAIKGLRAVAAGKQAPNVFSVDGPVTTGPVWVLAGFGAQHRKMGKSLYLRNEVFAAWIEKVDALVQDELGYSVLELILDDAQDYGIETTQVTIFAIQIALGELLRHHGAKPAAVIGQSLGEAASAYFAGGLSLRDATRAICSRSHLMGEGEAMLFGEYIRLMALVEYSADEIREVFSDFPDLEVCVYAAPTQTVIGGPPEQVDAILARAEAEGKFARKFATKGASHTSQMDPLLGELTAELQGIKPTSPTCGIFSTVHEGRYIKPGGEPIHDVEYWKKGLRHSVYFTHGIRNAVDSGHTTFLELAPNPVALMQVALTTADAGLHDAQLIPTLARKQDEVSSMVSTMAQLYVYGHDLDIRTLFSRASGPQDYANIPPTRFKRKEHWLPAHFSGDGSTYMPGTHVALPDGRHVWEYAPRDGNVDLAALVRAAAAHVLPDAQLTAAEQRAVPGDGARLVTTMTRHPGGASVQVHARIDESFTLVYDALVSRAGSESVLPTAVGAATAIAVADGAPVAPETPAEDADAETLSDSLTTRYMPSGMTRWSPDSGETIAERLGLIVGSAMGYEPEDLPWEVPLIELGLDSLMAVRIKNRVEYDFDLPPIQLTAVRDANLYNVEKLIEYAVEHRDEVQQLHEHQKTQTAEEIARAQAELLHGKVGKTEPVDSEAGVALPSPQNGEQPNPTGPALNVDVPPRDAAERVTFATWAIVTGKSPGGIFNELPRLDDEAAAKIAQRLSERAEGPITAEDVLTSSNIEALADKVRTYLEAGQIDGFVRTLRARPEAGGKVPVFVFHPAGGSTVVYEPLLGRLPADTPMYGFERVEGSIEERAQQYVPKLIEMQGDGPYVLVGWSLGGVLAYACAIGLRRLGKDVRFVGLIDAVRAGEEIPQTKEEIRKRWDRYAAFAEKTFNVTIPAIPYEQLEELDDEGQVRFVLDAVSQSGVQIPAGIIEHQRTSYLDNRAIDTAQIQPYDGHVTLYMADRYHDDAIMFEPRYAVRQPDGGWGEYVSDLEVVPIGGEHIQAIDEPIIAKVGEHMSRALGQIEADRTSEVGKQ
UniProt A4I591, 1-473: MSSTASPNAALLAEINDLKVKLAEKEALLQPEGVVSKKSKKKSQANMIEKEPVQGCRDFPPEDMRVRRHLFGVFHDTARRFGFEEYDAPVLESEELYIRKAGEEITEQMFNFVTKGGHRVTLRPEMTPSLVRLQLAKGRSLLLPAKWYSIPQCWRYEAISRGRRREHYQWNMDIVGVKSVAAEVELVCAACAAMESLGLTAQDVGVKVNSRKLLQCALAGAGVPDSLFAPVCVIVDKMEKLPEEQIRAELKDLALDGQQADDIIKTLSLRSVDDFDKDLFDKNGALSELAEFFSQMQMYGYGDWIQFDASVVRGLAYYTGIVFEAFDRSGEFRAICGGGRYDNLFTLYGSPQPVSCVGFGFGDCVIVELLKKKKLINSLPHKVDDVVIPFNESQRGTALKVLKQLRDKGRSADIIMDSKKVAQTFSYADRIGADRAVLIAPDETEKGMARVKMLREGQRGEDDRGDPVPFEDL
UniProt Q8IDJ8, 1-583: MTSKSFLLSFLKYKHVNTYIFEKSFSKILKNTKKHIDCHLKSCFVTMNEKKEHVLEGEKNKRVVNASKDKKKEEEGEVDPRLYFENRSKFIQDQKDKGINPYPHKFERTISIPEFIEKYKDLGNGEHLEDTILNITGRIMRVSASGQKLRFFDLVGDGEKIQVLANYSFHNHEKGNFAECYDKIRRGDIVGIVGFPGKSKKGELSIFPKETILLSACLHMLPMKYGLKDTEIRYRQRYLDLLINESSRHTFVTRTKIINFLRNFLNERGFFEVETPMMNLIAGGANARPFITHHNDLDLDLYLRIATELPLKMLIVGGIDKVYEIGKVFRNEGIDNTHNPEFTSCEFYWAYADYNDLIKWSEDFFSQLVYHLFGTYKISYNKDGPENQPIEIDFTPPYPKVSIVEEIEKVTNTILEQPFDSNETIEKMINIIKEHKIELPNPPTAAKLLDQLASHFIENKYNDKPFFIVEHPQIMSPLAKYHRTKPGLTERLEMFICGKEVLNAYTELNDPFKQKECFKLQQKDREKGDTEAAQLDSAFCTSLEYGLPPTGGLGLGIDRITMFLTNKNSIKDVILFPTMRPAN

Values are the deposited “Percent Effect”, in %. The controls that fix the scale are not given in the record; negative values are as filed. This is an unselected part of the compounds tested.

MtTrpRS: 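Tryptophan-tRNA ligase, Mycobacterium tuberculosis (UniProt P9WFT3). Enzyme assay of tryptophanyl-tRNA synthetase; the read-out is not stated. Concentration: 10 µM. Direction is not recorded; retested compounds ran higher, which suggests that high means inhibition. Size under these conditions: about 65,000 compounds, about 64 of them at 50% or above in at least one test.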
Pks13 thioesterase: 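Enzyme assay of the thioesterase domain of polyketide synthase 13; the read-out is not stated. Target: Polyketide synthase Pks13, Mycobacterium tuberculosis (UniProt I6X8D2). Concentration: 30 µM. The record gives no direction; the compounds picked for IC50 retests had high values, so higher reads as stronger inhibition. Of about 67,000 compounds tested this way, about 300 (0.46%) reached 50% or more in at least one test.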
LiHisRS: 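Enzyme assay of histidyl-tRNA synthetase; the read-out is not stated. Target: Histidine-tRNA ligase, Leishmania infantum (UniProt A4I591). Tested at 30 µM. Higher reads as stronger inhibition (inferred: compounds with an IC50 in retests scored well above the rest). The assay is labelled LdHisRS but filed under L. infantum. About 69,000 compounds were tested under these conditions; 0.6% (about 410) showed 50% or more at least once.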
PfKRS1: 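Enzyme assay of the cytosolic lysyl-tRNA synthetase in 384-well plates, read by luminescence. Target: Lysine-tRNA ligase, Plasmodium falciparum 3D7 (UniProt Q8IDJ8). Compounds at 30 µM. Higher reads as stronger inhibition, judged from the few compounds that gave an IC50. Of about 69,000 compounds tested this way, about 49 (0.071%) reached 50% or more in at least one test.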

COCc1c(C(=O)N2CCCC(C(=O)c3nccn3C)C2)noc1C (stereo not given) gave MtTrpRS: -3.087%; Pks13 thioesterase: 11.72%; LiHisRS: 7.692%; PfKRS1: 0.481%. CN(C)C(=O)CCS(=O)(=O)Cc1cc(Cl)c2c(c1)OCCO2 read MtTrpRS: -0.9726%; Pks13 thioesterase: -11.02%; LiHisRS: 1.333%; PfKRS1: 9.809%. CCOC(=O)c1cc2n(n1)CCCO2 read MtTrpRS: -1.978%; Pks13 thioesterase: -20.41%; LiHisRS: 15.58%; PfKRS1: 2.367%. Result for CCS(=O)(=O)N1CCC2(CC1)c1ncc(-c3cccnc3)n1CCN2C was Pks13 thioesterase: 11.56%; LiHisRS: 4.545%; PfKRS1: 1.141%. For CN(C)C(=O)N1CCC2(CCCN(CCOc3ccccc3)C2)C1 (stereo not given) the result was MtTrpRS: -5.307%; LiHisRS: 15.6%; PfKRS1: 4.753%.

COc1c(CNCc2cccc(Cn3ccnc3C)c2)c(C)nn1C read MtTrpRS: -4.72%; Pks13 thioesterase: 4.327%; LiHisRS: 14.29%; PfKRS1: 0.1566%. CC(NCC(=O)N(C)C1CC1)c1ccc(S(C)(=O)=O)c(F)c1 (stereo not given) read MtTrpRS: -1.899%; Pks13 thioesterase: -12.09%; LiHisRS: 4.505%; PfKRS1: -0.5999%. For O=C(c1ccno1)N1CC[C@@H]2O[C@H](COCCN3CCCC3)CC[C@@H]21 the result was MtTrpRS: 4.966%; Pks13 thioesterase: -12.28%; LiHisRS: 21.1%; PfKRS1: 1.747%. Result for COCC(=O)NC[C@H]1C[C@@H]2CCN1C[C@@H]2CN(C)c1ccccc1 was MtTrpRS: -0.6829%; Pks13 thioesterase: 5.655%; LiHisRS: 6.757%; PfKRS1: 2.875%. Result for CC(=O)N[C@@H]1CN(C(=O)CC2CC2)C[C@H]1O was MtTrpRS: -7.26%; Pks13 thioesterase: 12.72%; LiHisRS: 1.418%; PfKRS1: 1.251%.

For CS(=O)(=O)N[C@@H]1CN(Cc2ccccc2)C[C@@H]2CCCO[C@@H]21 the result was MtTrpRS: 2.441%; Pks13 thioesterase: -27.13%; LiHisRS: 22.86%; PfKRS1: 9.682%. Cc1ccc2c(c1)C(N(C)C)CC21CCN(CCO)CC1 (stereo not given) gave MtTrpRS: -2.745%; Pks13 thioesterase: -15.09%; LiHisRS: 14%; PfKRS1: 2.366%. Cc1c(NC(=O)c2cccc(Br)c2)c(C(=O)N(C)C)nn1C read MtTrpRS: -4.275%; Pks13 thioesterase: -6.983%; LiHisRS: 0%; PfKRS1: -4.391%. Result for CCc1ncc(CN2CCOC(Cc3cccc(F)c3)C2)cn1 (stereo not given) was MtTrpRS: 4.49%; Pks13 thioesterase: -12%; LiHisRS: 8.85%; PfKRS1: 6.625%. CCc1csc(NC(=O)Nc2c(C)n[nH]c2C)n1 read MtTrpRS: 1.125%; Pks13 thioesterase: -36.62%; LiHisRS: -5.181%; PfKRS1: 4.853%.

With CC(C)Oc1ccccc1C1CC(=O)Nc2nc(N3CCOCC3)sc21 (stereo not given) the screen gave MtTrpRS: 7.051%; Pks13 thioesterase: 14.17%; LiHisRS: 97.5%; PfKRS1: 82.62%. CN1CCN(CC2(O)CCCN(C(=O)Cc3cccc(O)c3)CC2)CC1 (stereo not given) gave MtTrpRS: 0.07807%; Pks13 thioesterase: 3.896%; LiHisRS: 8.511%; PfKRS1: 1.876%. Result for CCC[C@H]1CN(c2nccc(NCC)n2)C[C@@H]1NS(=O)(=O)N(C)C was MtTrpRS: -3.614%; Pks13 thioesterase: -28.1%; LiHisRS: 3.509%; PfKRS1: 2.807%. Result for CCOc1ccc(Cl)c(C(=O)N2CCCC(c3cc(C)[nH]n3)C2)n1 (stereo not given) was MtTrpRS: -3.199%; Pks13 thioesterase: -37.01%; LiHisRS: 9.375%; PfKRS1: 3.508%. O=C(c1nccc2ccccc12)N(Cc1ccco1)CC1CCCO1 (stereo not given) gave MtTrpRS: 3.815%; Pks13 thioesterase: -14.11%; LiHisRS: -1.724%; PfKRS1: -1.861%.

Result for COCc1cn(C2CCN(C(=O)Cc3ccsc3)CC2)nn1 was MtTrpRS: 3.704%; Pks13 thioesterase: 1.145%; LiHisRS: 11.11%; PfKRS1: 3.947%. For O=S(=O)(Nc1cnc(N2CCCC2)nc1)c1ccc(OC(F)(F)F)cc1 the result was MtTrpRS: 2.846%; Pks13 thioesterase: -11.64%; LiHisRS: 15.22%; PfKRS1: -0.0584%. CCCNC(=O)NC(=O)CN(CC(C)O)c1ccccc1 (stereo not given) read MtTrpRS: -3.049%; Pks13 thioesterase: -23.58%; LiHisRS: 21.33%; PfKRS1: 0.4492%. Result for COCCNC(=O)CN1CCN(c2nc3cc(C)ccc3o2)CC1 was MtTrpRS: -1.847%; Pks13 thioesterase: -20.1%; LiHisRS: 11.43%; PfKRS1: 4.432%. With CC(C)CNC(=O)c1c(-n2cnnn2)sc2c1CCCC2 the screen gave MtTrpRS: 3.797%; Pks13 thioesterase: 4.073%; LiHisRS: 15%; PfKRS1: 5.665%.

COCC(=O)N1CC[C@@H]2O[C@@H](COCC3CCOCC3)CC[C@@H]21 gave MtTrpRS: 0.7333%; Pks13 thioesterase: -10.02%; LiHisRS: 7.563%; PfKRS1: 1.719%. For O=c1[nH]c(-c2ccncc2)ncc1-c1ccnc(NC2CCCCC2)n1 the result was Pks13 thioesterase: -16.73%; LiHisRS: 5.714%; PfKRS1: 1.64%. CCC(C(=O)NC1CCCCC1)n1ccc2ncccc2c1=O (stereo not given) read MtTrpRS: -4.361%; Pks13 thioesterase: -26.67%; LiHisRS: 16.46%; PfKRS1: 4.83%.

The last 3 entries again:

{"compound": "COCC(=O)N1CC[C@@H]2O[C@@H](COCC3CCOCC3)CC[C@@H]21", "MtTrpRS": 0.7333, "Pks13 thioesterase": -10.02, "LiHisRS": 7.563, "PfKRS1": 1.719}
{"compound": "O=c1[nH]c(-c2ccncc2)ncc1-c1ccnc(NC2CCCCC2)n1", "Pks13 thioesterase": -16.73, "LiHisRS": 5.714, "PfKRS1": 1.64}
{"compound": "CCC(C(=O)NC1CCCCC1)n1ccc2ncccc2c1=O", "stereo": "stereo not given", "MtTrpRS": -4.361, "Pks13 thioesterase": -26.67, "LiHisRS": 16.46, "PfKRS1": 4.83}

From ChEMBL document CHEMBL3988442, “University of Dundee, Small-Polar-MMV Screening Library” (2021).